No constants are given. Whether binding was seen depends on the method and setting. Some results given as binding are weak or reduced against the parent protein; the word gives no strength.
Columns and labels:
[1] = biological target: CD36 immobilized on the SPR surface (UniProt P16671); assay: SPR competition experiment: CD36 immobilized on the surface, 20 nM 1G04 or buffer first, then a short pulse of 200 nM TSP1
[2] = biological target: CD36 immobilized on the SPR surface (UniProt P16671); assay: SPR competition experiment: CD36 immobilized, 20 nM anti-CD36 antibody to saturation, then 200 nM TSP1; change in RU relative to buffer-only injection

Amino acid sequences for entries named in this document (tags omitted). Residues count along the entry.
UniProt P16671, residues 30-439: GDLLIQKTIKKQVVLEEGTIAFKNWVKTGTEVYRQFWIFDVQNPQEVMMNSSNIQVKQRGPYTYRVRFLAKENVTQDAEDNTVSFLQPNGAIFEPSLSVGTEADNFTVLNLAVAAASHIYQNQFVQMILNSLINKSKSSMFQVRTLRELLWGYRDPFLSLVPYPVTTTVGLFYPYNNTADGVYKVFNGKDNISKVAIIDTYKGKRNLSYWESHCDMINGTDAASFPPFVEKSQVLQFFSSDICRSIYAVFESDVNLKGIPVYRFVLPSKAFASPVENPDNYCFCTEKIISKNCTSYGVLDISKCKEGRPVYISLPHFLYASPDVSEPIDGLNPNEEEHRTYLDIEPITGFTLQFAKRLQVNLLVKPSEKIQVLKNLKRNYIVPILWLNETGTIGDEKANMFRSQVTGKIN
UniProt P07996, residues 19-1170: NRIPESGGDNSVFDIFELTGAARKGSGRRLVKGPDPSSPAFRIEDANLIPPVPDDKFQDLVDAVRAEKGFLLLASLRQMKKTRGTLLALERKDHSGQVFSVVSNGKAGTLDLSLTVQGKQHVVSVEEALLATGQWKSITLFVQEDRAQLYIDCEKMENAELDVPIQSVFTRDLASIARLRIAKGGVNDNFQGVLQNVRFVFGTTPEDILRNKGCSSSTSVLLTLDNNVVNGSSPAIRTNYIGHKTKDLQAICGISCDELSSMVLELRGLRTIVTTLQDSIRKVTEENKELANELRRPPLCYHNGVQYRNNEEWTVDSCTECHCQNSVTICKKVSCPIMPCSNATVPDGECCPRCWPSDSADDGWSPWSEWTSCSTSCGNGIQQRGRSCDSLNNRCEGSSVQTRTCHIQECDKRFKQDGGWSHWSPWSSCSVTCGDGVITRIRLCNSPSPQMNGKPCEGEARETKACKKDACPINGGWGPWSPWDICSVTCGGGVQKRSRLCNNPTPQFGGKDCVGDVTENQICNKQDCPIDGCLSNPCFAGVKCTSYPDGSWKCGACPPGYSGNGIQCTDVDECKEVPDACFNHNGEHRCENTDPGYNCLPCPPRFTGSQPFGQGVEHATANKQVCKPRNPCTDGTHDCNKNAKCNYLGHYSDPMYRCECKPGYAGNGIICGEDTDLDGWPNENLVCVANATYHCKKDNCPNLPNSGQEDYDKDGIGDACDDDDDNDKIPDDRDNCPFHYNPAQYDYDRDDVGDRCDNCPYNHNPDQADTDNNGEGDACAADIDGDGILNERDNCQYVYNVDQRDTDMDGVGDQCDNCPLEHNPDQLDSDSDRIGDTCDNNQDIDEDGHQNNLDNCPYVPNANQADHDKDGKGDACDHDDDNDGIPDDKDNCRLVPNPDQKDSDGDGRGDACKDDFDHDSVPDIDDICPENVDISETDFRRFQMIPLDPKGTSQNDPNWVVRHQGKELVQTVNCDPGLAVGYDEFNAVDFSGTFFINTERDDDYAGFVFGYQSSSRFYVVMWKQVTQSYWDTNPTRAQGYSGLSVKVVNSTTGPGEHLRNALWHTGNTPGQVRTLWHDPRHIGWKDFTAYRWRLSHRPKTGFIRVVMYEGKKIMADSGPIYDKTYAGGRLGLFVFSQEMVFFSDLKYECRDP

binding [1]: binds
binding [2]: binds
Substance: TSP1 (from UniProt P07996 19-1170) (ligand)

Reference: patent US20250206836A1
